Laboratory results from PubChem BioAssay AID2685 (National Center for Advancing Translational Sciences (NCATS), 2010).
“And” between values parts separate entries of the source, which are not always exact repeats. Equal entries are not always repeated. This is one part of the list. Shown are side measurements of this screen, not its main read-out; they come without a call. Compounds called inactive in the main read-out are mostly missing here. Words in brackets tell the shape of the fitted curve; partial curves, single points and poor fits give uncertain potencies.

Assay: qHTS Assay for Lipid Storage Modulators in Drosophila S3 Cells;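 as to cell number change: cells counted by Cell Tracker Red CMTPX staining in the red channel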
Conditions: BODIPY lipid droplet fluorescence, 18-24 h; for cell number change: measured here: cell count max response, cells fed with added oleic acid
Summary of the method: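 Laser-scanning cytometry quantifies lipid droplet accumulation (500–530 nm total intensity; droplet/cell object ratio) in oleic acid-fed (400 uM added) Drosophila S3 cells treated with a concentration series. 20 uM Triacsin C defined 100% inhibition.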

[1] = measured here: lipid fluorescence (Fed channel) AC50, cells fed with added oleic acid
[2] = measured here: cell number channel AC50, cells fed with added oleic acid

| SMILES | cell number change | AC50 [1] | AC50 [2] |
| --- | --- | --- | --- |
| NC(=O)c1ccc[n+](CC(=O)c2ccc(Br)cc2)c1 | -24.5% | 6.51 µM [falling, full curve] | – |
| O=C(N/N=C\c1cc(Cl)ccc1O)c1ccc(S(=O)(=O)N2CCCCC2)cc1 | -40.3% | 18.4 µM [falling, single point] | 18.4 µM [falling, single point] |
| CCOC(=O)CC(=O)CSc1ncnc2c1nnn2-c1ccccc1 | 8.55% | 29.1 µM [rising, single point] | – |
| COc1ccc(O)c(/C=N/NC(=O)CCC(=O)Nc2cccc(C)c2)c1 | -10.6% | 11.6 µM [falling, partial curve] | – |
| COc1ccccc1-c1c(C)nn2c(N3CCN(c4ccccc4OC)CC3)cc(C)nc12 | 12.2% | – | – |
| Cc1ccc(C)c(NC(=O)COC(=O)c2ccc3c(c2)OCCO3)c1 | -25.2% | 0.082 µM [falling, full curve] | – |
| COc1ccc(C(=O)Nc2cc(C)on2)cc1 | 7.15% | 1.03 µM [rising, full curve, poor fit] | – |
| CCOC(=O)COc1cccc2c(=O)n(CC(=O)N3CCCCC3)ccc12 | 13.4% | – | – |
| Cc1c(NS(=O)(=O)c2ccc(C(=O)NCc3ccc(F)cc3)cc2)c(=O)n(-c2ccccc2)n1C | -4.33% | 0.291 µM [falling, full curve, poor fit] | – |
| CCOc1cc(NC(=O)c2ccco2)c(OCC)cc1NC(=O)COc1ccccc1 | -29.6% | 0.82 µM [rising, full curve, poor fit] | – |
| COCCCNS(=O)(=O)c1cc2c3c(c1)C(C)C(=O)N3CCC2 (configuration not stated) | 34.4% | 29.1 µM [rising, single point] | – |
| CCC(=O)N1CCN(c2ccc(Cl)cc2NC(=O)Cc2ccc(Cl)cc2)CC1 | 0.594% | – | – |
| CC(C)(C)c1cc(NC(=O)c2cccnc2)no1 | -48.6% | 29.1 µM [falling, single point] | 25.9 µM [falling, single point] |
| O=C(O)c1ccc(NS(=O)(=O)c2ccc(Cl)c(C(=O)Nc3ccccc3[N+](=O)[O-])c2)cc1 | 3.67% | – | – |
| COc1ccc(-c2cc(C(F)(F)F)n3ncc(C(=O)O)c3n2)cc1OC | 14.8% | – | – |
| CCN(CC)c1ccc(-c2n[nH]c(=S)n2-c2ccccc2)cc1 | -23.3% | 7.31 µM [falling, single point] | – |
| Cc1ccc(C(=O)NCC(=O)O)s1 | -23.3% | 1.46 µM [falling, partial curve, poor fit] | – |
| O=C(NCc1cccnc1)NC1(C(F)(F)F)Oc2ccc(Cl)cc2O1 (configuration not stated) | -92% | 11.6 µM [falling, partial curve] | 8.2 µM [falling, partial curve] |
| O=C(N/N=C/c1ccccn1)c1cccc(NC(=O)c2ccc(Cl)cc2)c1 | -33.5% | 6.51 µM [falling, full curve, poor fit] | 4.61 µM [falling, full curve] |
| CC(=O)Nc1cc(C(=O)N2CCCC2)ccc1Sc1ccc(Cl)cc1 | -11% | 0.82 µM [rising, full curve] | – |
| Oc1ccccc1C1N=C(c2ccccc2)NC(c2ccccc2)=N1 | -68.5% | – | – |

Retrieved by structure from above, 2 records:

| SMILES | cell number change | AC50 [1] | AC50 [2] |
| --- | --- | --- | --- |
| CC(C)(C)c1cc(NC(=O)c2cccnc2)no1 | -48.6% | 29.1 µM [falling, single point] | 25.9 µM [falling, single point] |
| O=C(N/N=C\c1cc(Cl)ccc1O)c1ccc(S(=O)(=O)N2CCCCC2)cc1 | -40.3% | 18.4 µM [falling, single point] | 18.4 µM [falling, single point] |

Later entries

| SMILES | cell number change | AC50 [1] | AC50 [2] |
| --- | --- | --- | --- |
| COc1ccc(-n2c(C)cc(C(=O)COc3ccc(-n4cnnn4)cc3)c2C)cc1 | -32.9% | – | 10.3 µM [falling, partial curve] |
| CC(C)CC(=O)NC(=S)Nc1ccccn1 | 33.4% | – | 0.0103 µM [rising, full curve, poor fit] |
| c1cncc(-c2nc3c(ccc4ccccc43)[nH]2)c1 | -17.5% | – | – |
| O=C(Nc1ccc(Cl)c(Cl)c1)Nc1nnc(CSc2ccccc2)s1 | 96.6% | 3.66 µM [falling, full curve] | 9.2 µM [rising, partial curve] |
| Cc1ccc(N(CC(=O)NC(C)(C)C)C(=O)CCC(=O)Nc2nccs2)cc1C | -6.2% | 16.4 µM [falling, single point] | – |
| O=C(CSCc1nc2ccccc2[nH]1)Nc1ccc2ccccc2c1 | -22.9% | 0.58 µM [falling, full curve, poor fit] | – |
| Cc1cccc(OCC(=O)Nc2nnc(S(=O)(=O)N3CCC(C)CC3)s2)c1 | -1.16% | – | – |
| N#CC(c1ccccc1F)(c1ncc(C(F)(F)F)cc1Cl)N1CCOCC1 (configuration not stated) | 0.862% | – | – |
| Cc1cc(CNC(=O)Nc2ccc3c(c2)OCO3)nn1C | 15.9% | 0.58 µM [rising, single point] | 0.366 µM [rising, full curve] |
| O=C(CCCCC(=O)Nc1ccccc1)Nc1ccccc1 | 19.3% | 6.51 µM [rising, single point] | – |
| CN1C(=O)C2C=CC1C1C(=O)N(c3ccccc3)C(=O)C21 (configuration not stated) | -24.7% | 1.84 µM [falling, partial curve, poor fit] | 0.517 µM [falling, full curve] |
| Nc1ccccc1OCCOCCOCCOc1ccccc1N | 21.8% | 6.51 µM [falling, single point] | 0.651 µM [falling, partial curve, poor fit] |
| COC(=O)c1cccc(NC(=O)CSc2nc(=O)cc(N)n2-c2ccccc2)c1 | 12.7% | – | – |
| Cc1cccc(C(=O)NNC(=O)C2CC2)c1 | 10.3% | 0.164 µM [rising, full curve, poor fit] | 0.082 µM [rising, full curve, poor fit] |
| COc1ccc(Cl)cc1NC(=O)CSc1nnc(COc2ccccc2)n1C | -13.6% | 1.46 µM [rising, partial curve] | – |
| Cc1cc(C)n2nc(SCC(=O)Nc3ccc(F)cc3)nc2n1 | -36.6% | 18.4 µM [falling, single point] | 7.31 µM [falling, partial curve] |
| O=C(Cn1cnc2ccc(Br)cc2c1=O)c1cccs1 | 25% | – | – |
| O=S1(=O)NC2CCCCCN2c2ccc(F)cc21 (configuration not stated) | -4.18% | 0.0116 µM [falling, full curve] | – |
| COc1cc(NC(=O)c2cccc(F)c2)ccc1NC(=O)c1cc2ccccc2o1 | -39.5% | 9.2 µM [falling, partial curve] | 25.9 µM [falling, single point] |
| CCOC(=O)C(C)Sc1nc2c(c(=O)[nH]c(=O)n2C)n1Cc1ccc(Cl)cc1 (configuration not stated) | 121% | 20.6 µM [rising, partial curve] | 20.6 µM [rising, partial curve] |
| C=CCc1cccc2cc(C(=O)OCC)c(=O)oc12 | 9.24% | 2.91 µM [rising, partial curve] | – |

Single entries from above.
Cc1cccc(C(=O)NNC(=O)C2CC2)c1 – cell number change: 10.3%
COc1cc(NC(=O)c2cccc(F)c2)ccc1NC(=O)c1cc2ccccc2o1 – cell number change: -39.5%
Cc1cc(C)n2nc(SCC(=O)Nc3ccc(F)cc3)nc2n1 – AC50 [2]: 7.31 µM [falling, partial curve]
O=C(Nc1ccc(Cl)c(Cl)c1)Nc1nnc(CSc2ccccc2)s1 – AC50 [2]: 9.2 µM [rising, partial curve]

Later entries

| SMILES | cell number change | AC50 [1] | AC50 [2] |
| --- | --- | --- | --- |
| COc1ccc2c(c1OC)C(=O)N1C2SC[C@H]1C(=O)NC1CCCC1 (some centres not stated) | 19.1% | 29.1 µM [rising, single point] | – |
| c1ccc2c(-c3nn4nnnc4c4ccccc34)cccc2c1 | 63.7% | – | 29.1 µM [rising, single point] |
| O=C(CN1CCN(c2ccccc2)CC1)Nc1ccccc1Cl | -55.7% | – | – |
| COc1ccccc1N1CCN(S(=O)(=O)CC23CCC(CC2=O)C3(C)C)CC1 (configuration not stated) | -132% | 2.59 µM [falling, single point] | – |
| CC(=O)CC1OC(=O)C(Br)=C1NCc1ccccc1 (configuration not stated) | -11.8% | 0.651 µM [falling, full curve] | 0.00461 µM [falling, full curve, poor fit] |
| Cc1cccnc1Nc1nc(-c2ccc(O)cc2)cs1 | 17.5% | – | 0.366 µM [rising, full curve, poor fit] |
| CCOC(=O)C1(CCOc2ccccc2)CCN(Cc2ccc(OCCO)cc2)CC1 | -8.99% | 0.00461 µM [rising, full curve, poor fit] | – |
| CN(Cc1ccccc1)S(=O)(=O)c1ccc(Cl)c(C(=O)OCC(N)=O)c1 | 20.9% | – | – |
| COc1ccc(C(C)NC(=O)c2ccccc2Br)cc1OC (configuration not stated) | 4.18% | – | – |
| CCC(CC)C(=O)Nc1cccc(C(=O)NCCc2ccccc2)c1 | 27.4% | 2.91 µM [rising, single point] | – |
| CC1=C(C)CC(C(=O)NC(C)CCc2ccccc2)C(C(=O)O)C1 (configuration not stated) | 107% | – | – |
| Cc1cccc(NC(=O)c2cc(S(=O)(=O)N3CCCCC3)ccc2Cl)n1 | -36.1% | – | 2.06 µM [falling, full curve, poor fit] |
| O=C(CNc1ccc2c(c1)OCO2)N/N=C\c1cn(Cc2ccc(F)cc2)c2ccccc12 | -11.2% | 29.1 µM [falling, single point] | – |
| CS/C(=N\S(=O)(=O)c1cccs1)NC(=O)CSc1nc2ccccc2s1 | 13% | – | 0.184 µM [rising, full curve, poor fit] |
| CCc1ccc(N=CC23c4ccccc4C(c4ccccc42)C2C(=O)N(c4ccc(OC)cc4)C(=O)C23)cc1 (configuration not stated) | 9.2% | – | – |
| CC(=O)c1ccccc1NC(=O)COC(=O)c1cc(C)oc1C | 4.17% | 2.31 µM [rising, partial curve] | 4.61 µM [rising, single point] |
| CCNc1nc(C)nc2c1oc1ccccc12 | -16.2% | 6.51 µM [rising, partial curve] | – |
| COc1ccc(CCc2nc(C)ccc2O)cc1 | 15.5% and -5.02% | 517 nM [falling, single point] and 14.6 µM [rising, partial curve, poor fit] | – |
| CCOc1ccccc1OCCCC(=O)N1CCN(S(=O)(=O)c2cccc(F)c2)CC1 | 8.41% | 16.4 µM [rising, partial curve] | – |
| C=CCNC(=O)N1CCC(n2nccc2NC(=O)CCCc2ccccc2)CC1 | 13.5% | 0.116 µM [rising, single point] | – |
